PubChem BioAssay AID743121 – NCATS, 2013
Aim: 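Genes whose silencing strengthens cell killing by camptothecin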 (primary screen). Cell system: MDA-MB-231 cells, a human breast cancer line. Reagent: single siRNA against human genes, 20 nM siRNA (0.8 pmol per well). Duration: 120 h (drug added 48 h after transfection, read 72 h later). Treatment: camptothecin 20 nM (about EC30) for 72 h; vehicle 0.1% DMSO in parallel plates. Detection: 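CellTiter-Glo ATP signal, scaled to control siRNA as percent viability; sensitisation given as log2 of untreated divided by camptothecin-treated viability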. Reading the numbers: log2 vehicle/camptothecin viability: higher = stronger sensitisation to camptothecin. Call rule: 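Each gene scored by redundant siRNA activity (RSA) over its individual siRNA ratios; a gene is called active at p < 0.001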.
Shown is a random part of about 26,000 deposited reagents. Over the whole deposit, 167 (0.63%) were called active. 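Calls are per gene from RSA p-values that are not deposited; an individual active-marked siRNA can sensitise only weakly.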 Reagents against one gene are numbered here. Further read-outs or replicates are left out here.

| target | siRNA no. | log2 vehicle/camptothecin viability | Outcome |
| --- | --- | --- | --- |
| GABRG1 | 1 | -0.212 | inactive |
| GABRG1 | 2 | 0.0547 | inactive |
| GABRG1 | 3 | 0.0494 | inactive |
| GABRG1 | 4 | 0.249 | inactive |
| TUBA8 | 1 | -0.149 | inactive |
| TUBA8 | 2 | 0.0378 | inactive |
| TUBA8 | 3 | -0.0779 | inactive |
| TUBA8 | 4 | 0.14 | inactive |
| TRIM35 | 1 | -0.0968 | inactive |
| TRIM35 | 2 | -0.33 | inactive |
| TRIM35 | 3 | 0.175 | inactive |
| TRIM35 | 4 | -0.0724 | inactive |
| OR1D4 | 1 | 0.0386 | inactive |
| OR1D4 | 2 | -0.109 | inactive |
| SKP2 | 1 | -0.266 | inactive |
| SKP2 | 2 | 0.12 | inactive |
| SKP2 | 3 | 0.446 | inactive |
| SKP2 | 4 | -0.0969 | inactive |

In a second layout: 2 of the entries above
target | siRNA no. | log2 vehicle/camptothecin viability | Outcome
GABRG1 | 2 | 0.0547 | inactive
GABRG1 | 3 | 0.0494 | inactive

The results go on.
| target | siRNA no. | log2 vehicle/camptothecin viability | Outcome |
| --- | --- | --- | --- |
| CLDN4 | 1 | -0.534 | inactive |
| CLDN4 | 2 | 0.349 | inactive |
| CLDN4 | 3 | -0.039 | inactive |
| CLDN4 | 4 | 0.507 | inactive |
| EDN3 | 1 | 0.0306 | inactive |
| EDN3 | 2 | 0.723 | inactive |
| EDN3 | 3 | 0.152 | inactive |
| EDN3 | 4 | 1.29 | inactive |
| ASIC2 | 1 | -0.319 | inactive |
| ASIC2 | 2 | 0.205 | inactive |
| ASIC2 | 3 | -0.537 | inactive |
| ASIC2 | 4 | 0.91 | inactive |
